Results on one substance are retold here after paper doi:10.1101/2022.06.27.497627.

Sequences of proteins named here, by UniProt entry; tags and fusion partners are left off.
UniProt P27361: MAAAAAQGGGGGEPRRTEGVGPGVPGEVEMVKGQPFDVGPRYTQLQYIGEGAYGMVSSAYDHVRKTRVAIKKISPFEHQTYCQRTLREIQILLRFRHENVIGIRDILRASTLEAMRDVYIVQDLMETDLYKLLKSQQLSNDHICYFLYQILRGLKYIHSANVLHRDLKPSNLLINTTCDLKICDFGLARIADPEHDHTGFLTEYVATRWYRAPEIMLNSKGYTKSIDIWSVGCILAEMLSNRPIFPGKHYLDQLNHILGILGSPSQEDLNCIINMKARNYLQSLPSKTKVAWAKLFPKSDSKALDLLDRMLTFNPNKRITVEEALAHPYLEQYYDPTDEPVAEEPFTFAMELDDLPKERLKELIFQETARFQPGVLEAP

The target in the test is MEK2 (HA-tagged) (UniProt P36507). Briefly: co-IP.

Results are given in words; binding and its absence hold for the method and conditions named. Binding seen in cells or lysates may run through a third protein. Some binding calls cover weakened binding; strength is not graded here.

Take “ERK1 (extracellular regulated protein kinase 1) (from UniProt P27361 1-379) (enzyme)”: the binding result is “binds”.
